Reference: patent publication US20220372014A1, “NEUROPROTECTIVE COMPOUNDS AND METHODS OF USE THEREOF” (The Johns Hopkins University, priority 2019, published 2022)

The chains behind the UniProt entries cited, without tags or fusion partners. Where a name states a change or a piece, a line headed by the entry shows the natural chain unless it says otherwise.
UniProt P14174: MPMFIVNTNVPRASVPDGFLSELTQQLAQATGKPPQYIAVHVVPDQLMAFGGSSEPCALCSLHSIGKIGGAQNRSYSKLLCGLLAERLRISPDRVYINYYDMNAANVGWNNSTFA

What was measured:
[1] = target: PAAN/MIF (macrophage migration inhibitory factor) (Homo sapiens) (UniProt P14174); experiment: enzyme reaction in vitro; settings: purified recombinant protein, single-stranded DNA
[2] = target: PAAN/MIF (macrophage migration inhibitory factor) (Homo sapiens) (UniProt P14174); experiment: EMSA; settings: 2 uM MIF, 10 nM biotin-DNA, 10 mM MgCl2, on ice; effect of compound 121 on binding tested; PS30 sequence assigned from listing SEQ 1; purified recombinant protein; label: biotin (EMSA); single-stranded DNA

Row | Sequence | activity on this sequence ([1]; 4 uM MIF, 1 uM DNA, 10 mM Tris-Cl pH 7.0, 10 mM MgCl2, 37 C 1 h, label: biotin (EMSA)) | binding result [2] | activity on this sequence ([1]; 5'-NH2, 4-8 uM MIF, 10 mM Tris-Cl pH 7.0, 10 mM MgCl2, 1 h, inhibited by compounds such as 56 and 121)
1 | CTCAGCCTCCCAAGTAGCTGGGATTACAGG [PS30] | active | binds | –
2 | TCCCAAGTAGCTGGGATTACAGGAAAAAA [RF substrate] | – | – | active

For part of these data: For at least one entry, the source does not settle the construct or the ends of the probe.
